Laboratory results: PubChem BioAssay AID1224830 (NIAID, 2016)
The deposit covers about 18,000 reagents; shown is a part drawn at random. Over the whole deposit, about 2,900 (16%) are marked active. 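Calls are made per well; low scores hint the gene aids the LPS response, high scores that it dampens it.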 Reagents against one gene are numbered here. Repeated entries: four replicate wells of each siRNA pool. Reagent sequences are not shown.

- Assay: 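Genes whose knock-down alters the TNF-alpha reporter response to LPS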 (primary screen)
- Cell system: human THP-1 monocytic leukaemia cells, TNF dual-luciferase reporter clone, PMA-differentiated to macrophage-like cells
- Knock-down reagent: siRNA pool against human genes, 50 nM
- Time to read-out: LPS for 4 h, given about 3 days after siRNA transfection
- Conditions: bacterial LPS (TLR4 ligand), 10 ng/ml
- Detection: 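Ratio of firefly to renilla light, scaled to the plate median and expressed as a robust z-score per replicate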
- Scale: TNF reporter robust z-score: higher = stronger TNF reporter response to LPS
- Active means: 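a well is active when its z-score exceeds 2.8 or falls below -1.5; control wells carry no call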

gene symbol,reagent no.,TNF reporter robust z-score,call
TLK1,1,-0.45,inactive
TLK1,1,0.11,inactive
TLK1,1,-0.2,inactive
TLK1,1,-0.72,inactive
CCDC8,1,-0.51,inactive
CCDC8,1,0.88,inactive
CCDC8,1,-0.67,inactive
SP7,1,2.91,active
SP7,1,2.74,inactive
SP7,1,1.29,inactive
SP7,1,1.8,inactive
MBD3L2,1,0.51,inactive
MBD3L2,1,0.36,inactive
MBD3L2,1,2.21,inactive
MBD3L2,1,1.49,inactive
TBXAS1,1,0.82,inactive
TBXAS1,1,2.13,inactive
TBXAS1,1,1.46,inactive
TBXAS1,1,0.45,inactive
CAVIN3,1,0.79,inactive
CAVIN3,1,1.55,inactive
CAVIN3,1,0.27,inactive
CAVIN3,1,1.22,inactive
FBXO46,1,4.05,active
FBXO46,1,1.28,inactive
FBXO46,1,7.93,active
FBXO46,1,0.47,inactive
B3GALNT1,1,-0.68,inactive
B3GALNT1,1,1.54,inactive
B3GALNT1,1,0.53,inactive
B3GALNT1,1,-0.11,inactive
NEDD9,1,0.89,inactive
NEDD9,1,-0.57,inactive
NEDD9,1,0.29,inactive
NEDD9,1,-0.17,inactive
NUAK1,1,1.82,inactive
NUAK1,1,0.06,inactive
NUAK1,1,-0.71,inactive
NUAK1,1,0.81,inactive
C2orf66,1,0.16,inactive
C2orf66,1,-0.41,inactive
C2orf66,1,-1.03,inactive
C2orf66,1,-0.26,inactive
ALAS2,1,-1.67,active
ALAS2,1,-1.4,inactive
ALAS2,1,-1.36,inactive
ALAS2,1,-1.69,active
ZPLD1,1,-0.34,inactive
ZPLD1,1,0.09,inactive
ZPLD1,1,-0.73,inactive
ZPLD1,1,0.34,inactive
VGLL3,1,3.33,active
VGLL3,1,2.42,inactive
VGLL3,1,2.57,inactive
VGLL3,1,3.27,active
CLEC1A,1,0.06,inactive
CLEC1A,1,-0.4,inactive
CLEC1A,1,0.24,inactive
CLEC1A,1,1.28,inactive
HNF1B,1,-0.62,inactive
HNF1B,1,0.56,inactive
HNF1B,1,-0.31,inactive
HNF1B,1,0.37,inactive

Targets above whose gene name begins with Z or z (4):
gene symbol,reagent no.,TNF reporter robust z-score,call
ZPLD1,1,-0.34,inactive
ZPLD1,1,0.09,inactive
ZPLD1,1,-0.73,inactive
ZPLD1,1,0.34,inactive

The results go on.
gene symbol,reagent no.,TNF reporter robust z-score,call
EIF3B,1,-0.8,inactive
EIF3B,1,-0.87,inactive
EIF3B,1,-0.76,inactive
EIF3B,1,-1.01,inactive
KANSL3,1,0.06,inactive
KANSL3,1,0.08,inactive
KANSL3,1,0.56,inactive
KANSL3,1,0.3,inactive
CDKN1A,1,0.48,inactive
CDKN1A,1,0.36,inactive
CDKN1A,1,-1.08,inactive
CDKN1A,1,-1.15,inactive
LINC00303,1,0.43,inactive
LINC00303,1,-0.87,inactive
LINC00303,1,-1.22,inactive
LINC00303,1,-0.76,inactive
AANAT,1,-1.19,inactive
AANAT,1,-1.03,inactive
AANAT,1,-0.48,inactive
AANAT,1,0.36,inactive
SMN2,1,0.03,inactive
SMN2,1,-0.19,inactive
SMN2,1,-0.66,inactive
SMN2,1,-0.93,inactive
SEMA4D,1,2.99,active
SEMA4D,1,2.54,inactive
SEMA4D,1,0.37,inactive
SEMA4D,1,-0.7,inactive
SEMA4D,2,0.76,inactive
SEMA4D,2,0.78,inactive
SEMA4D,2,-0.59,inactive
SEMA4D,2,0.65,inactive
DRP2,1,1.5,inactive
DRP2,1,0.4,inactive
DRP2,1,-1.09,inactive
DRP2,1,1.09,inactive
E2F6,1,0.18,inactive
E2F6,1,0.28,inactive
E2F6,1,-0.18,inactive
E2F6,1,0.31,inactive
PIGW,1,-0.49,inactive
PIGW,1,0.64,inactive
PIGW,1,1.41,inactive
PIGW,1,-0.34,inactive
IBA57,1,-1.57,active
IBA57,1,-0.78,inactive
IBA57,1,-1.25,inactive
IBA57,1,-0.11,inactive
